Data published in patent US20250264459A1, “IN VITRO ASSAY TO PREDICT CARDIOTOXICITY” (Stemina Biomarker Discovery, Inc., priority 2018, published 2025).

System: human iPSC-CM (iCell Cardiomyocytes)
Assay: Dose-response cell viability (CellTiter-Fluor) in iPSC-derived cardiomyocytes, maximum acceptable viability exposure
Format: cell-based
Description: Metabolomic data was acquired to identify non-cytotoxic exposure levels and identify biomarkers of cardiotoxicity from a dose-response experiment using spent medium of iPSC-CM treated with 53 of the compounds in the training set. Briefly, human iPSC-CM (iCell® Cardiomyocytes, cat #R1007, Cellular Dynamics International) were exposed to eight concentrations of each training set compound. Spent media was collected for LC-MS analysis and cell viability was assessed with the CellTiter-Fluor Cell Viability Assay (Promega). Spent media samples were prepared and analyzed using the methods developed in Specific Aim 1. The spent media samples from iPSC-CM treated with 10 representative cardiotoxic and non-cardiotoxic compounds were analyzed with all four LC-MS methods to rank biological significant secretome features by predictive capacity. […]
The goal of the concentration-response phase of biomarker identification was to identify non-cytotoxic exposure levels that change iPSC-CM metabolism. The method included modeling feature response, calculating maximum acceptable viability (MAVE), determining response at Cmax, and MAVE, reviewing the top 4 responding features, and selecting the highest tested exposure with 90% viability.

Structure (SMILES): COC(=O)C1=C(C)NC(C)=C(C(=O)OC)C1c1ccccc1[N+](=O)[O-] [Nifedipine]
- MAVE (Maximum Acceptable Viability Exposure): 100 µM
